Some of the results follow. The data scatter; read single values as rough.
Compound: ClCC(=O)N[C@@H]1CCCc2ccccc12
Test: log2 mean competition ratio of IA-DTB cysteine labelling (DMSO/compound) (log2 ratio); higher = stronger cysteine engagement by compound
Conditions: 50 µM; treatment time: 4 h; cell line lysate: HEK293T
Method: (§1)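 IA-DTB competitive cysteine chemoproteomics in HEK293T RIPA lysate. Lysates were treated with compound 29 or 30 at 50 or 200 µM for 4 h, then IA-DTB (500 µM, 1 h), trypsin-digested, NeutrAvidin-enriched and analysed by diaPASEF. Competition ratio = intensity DMSO / intensity compound (n=4 treated, n=64 DMSO); binding: mean log2 CR ≥ 1 and p ≤ 0.05 plus QC filters. Target is the cysteine site.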

By UniProt entry, the sequences of proteins in these tests, tags left out. Where a name states a change or a piece, a line headed by the entry shows the natural chain unless it says otherwise. Residues count along the entry.
UniProt Q5TAX3, 776-804: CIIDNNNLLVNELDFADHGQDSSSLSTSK
UniProt Q5TAX3, 1226-1245: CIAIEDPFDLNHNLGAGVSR
UniProt Q9UNY4: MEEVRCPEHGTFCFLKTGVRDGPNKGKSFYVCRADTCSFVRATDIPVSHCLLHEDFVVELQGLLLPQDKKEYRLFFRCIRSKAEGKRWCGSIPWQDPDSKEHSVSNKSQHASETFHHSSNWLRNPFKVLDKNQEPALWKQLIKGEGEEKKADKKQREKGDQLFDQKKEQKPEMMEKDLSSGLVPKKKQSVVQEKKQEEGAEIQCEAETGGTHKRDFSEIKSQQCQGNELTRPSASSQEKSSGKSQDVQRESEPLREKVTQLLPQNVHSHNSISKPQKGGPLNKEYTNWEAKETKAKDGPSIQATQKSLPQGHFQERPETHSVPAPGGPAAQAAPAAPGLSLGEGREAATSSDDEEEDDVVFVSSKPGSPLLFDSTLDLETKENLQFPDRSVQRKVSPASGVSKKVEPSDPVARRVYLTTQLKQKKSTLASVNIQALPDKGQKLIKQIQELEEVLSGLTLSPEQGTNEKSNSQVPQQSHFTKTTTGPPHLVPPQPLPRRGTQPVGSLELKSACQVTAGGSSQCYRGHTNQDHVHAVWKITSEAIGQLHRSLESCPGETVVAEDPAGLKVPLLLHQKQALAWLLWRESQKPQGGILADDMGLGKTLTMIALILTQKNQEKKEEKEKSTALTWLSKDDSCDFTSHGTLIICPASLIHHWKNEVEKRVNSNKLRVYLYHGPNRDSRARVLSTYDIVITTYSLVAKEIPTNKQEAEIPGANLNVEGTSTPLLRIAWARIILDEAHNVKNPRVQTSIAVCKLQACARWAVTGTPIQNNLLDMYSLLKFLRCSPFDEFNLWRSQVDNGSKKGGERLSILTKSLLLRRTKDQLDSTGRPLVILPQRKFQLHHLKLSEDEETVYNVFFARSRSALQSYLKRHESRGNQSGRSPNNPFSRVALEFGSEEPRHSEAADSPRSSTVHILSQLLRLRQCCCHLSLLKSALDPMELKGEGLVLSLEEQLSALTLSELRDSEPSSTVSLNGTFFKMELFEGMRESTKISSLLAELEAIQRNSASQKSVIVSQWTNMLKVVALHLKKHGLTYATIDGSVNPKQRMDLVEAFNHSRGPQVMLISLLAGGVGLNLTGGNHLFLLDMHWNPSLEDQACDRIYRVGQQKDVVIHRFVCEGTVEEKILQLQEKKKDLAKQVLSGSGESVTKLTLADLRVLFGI
UniProt Q8IWV7: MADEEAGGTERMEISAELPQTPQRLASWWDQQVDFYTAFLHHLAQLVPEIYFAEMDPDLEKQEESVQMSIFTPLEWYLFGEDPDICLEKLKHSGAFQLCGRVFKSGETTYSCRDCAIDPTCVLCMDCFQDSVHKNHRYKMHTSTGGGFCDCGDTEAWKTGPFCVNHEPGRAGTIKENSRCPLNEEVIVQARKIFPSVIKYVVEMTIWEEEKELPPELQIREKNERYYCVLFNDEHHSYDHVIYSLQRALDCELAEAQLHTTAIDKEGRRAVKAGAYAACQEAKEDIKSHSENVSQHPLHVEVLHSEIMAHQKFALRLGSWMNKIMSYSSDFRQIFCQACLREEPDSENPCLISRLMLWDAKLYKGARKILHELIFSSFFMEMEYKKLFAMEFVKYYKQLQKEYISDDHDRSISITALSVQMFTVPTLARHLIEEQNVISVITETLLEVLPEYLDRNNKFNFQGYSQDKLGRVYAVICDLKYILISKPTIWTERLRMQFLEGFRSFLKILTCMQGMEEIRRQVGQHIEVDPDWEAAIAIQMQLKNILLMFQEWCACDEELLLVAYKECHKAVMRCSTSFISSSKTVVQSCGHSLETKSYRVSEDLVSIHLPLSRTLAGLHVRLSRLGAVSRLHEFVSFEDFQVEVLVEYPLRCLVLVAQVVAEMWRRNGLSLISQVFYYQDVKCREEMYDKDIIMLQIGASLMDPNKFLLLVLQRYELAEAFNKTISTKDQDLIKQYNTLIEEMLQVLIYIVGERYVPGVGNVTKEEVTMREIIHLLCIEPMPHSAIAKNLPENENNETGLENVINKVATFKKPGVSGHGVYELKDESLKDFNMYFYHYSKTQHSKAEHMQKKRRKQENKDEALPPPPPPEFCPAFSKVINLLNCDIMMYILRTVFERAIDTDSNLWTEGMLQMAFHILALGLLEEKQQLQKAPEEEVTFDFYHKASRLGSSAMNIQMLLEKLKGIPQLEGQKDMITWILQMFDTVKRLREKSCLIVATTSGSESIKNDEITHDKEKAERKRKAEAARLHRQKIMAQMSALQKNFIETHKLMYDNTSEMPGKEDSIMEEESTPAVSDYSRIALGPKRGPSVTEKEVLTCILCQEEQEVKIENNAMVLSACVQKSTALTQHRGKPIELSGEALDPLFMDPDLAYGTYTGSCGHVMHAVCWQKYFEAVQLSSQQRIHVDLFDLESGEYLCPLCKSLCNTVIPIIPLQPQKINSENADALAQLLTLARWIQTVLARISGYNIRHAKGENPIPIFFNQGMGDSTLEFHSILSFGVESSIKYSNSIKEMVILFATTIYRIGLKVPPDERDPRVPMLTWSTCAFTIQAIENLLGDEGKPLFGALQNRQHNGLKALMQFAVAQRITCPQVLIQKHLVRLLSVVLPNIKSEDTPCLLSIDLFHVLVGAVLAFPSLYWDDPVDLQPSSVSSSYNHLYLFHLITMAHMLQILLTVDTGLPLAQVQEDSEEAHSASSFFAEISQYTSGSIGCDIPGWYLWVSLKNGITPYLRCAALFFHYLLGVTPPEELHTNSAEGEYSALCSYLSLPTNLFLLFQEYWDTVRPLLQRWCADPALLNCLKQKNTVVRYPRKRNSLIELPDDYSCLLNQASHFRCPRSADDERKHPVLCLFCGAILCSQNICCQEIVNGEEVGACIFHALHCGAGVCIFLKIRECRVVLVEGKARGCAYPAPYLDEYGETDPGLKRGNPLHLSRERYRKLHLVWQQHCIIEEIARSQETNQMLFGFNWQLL
UniProt Q6ZU65: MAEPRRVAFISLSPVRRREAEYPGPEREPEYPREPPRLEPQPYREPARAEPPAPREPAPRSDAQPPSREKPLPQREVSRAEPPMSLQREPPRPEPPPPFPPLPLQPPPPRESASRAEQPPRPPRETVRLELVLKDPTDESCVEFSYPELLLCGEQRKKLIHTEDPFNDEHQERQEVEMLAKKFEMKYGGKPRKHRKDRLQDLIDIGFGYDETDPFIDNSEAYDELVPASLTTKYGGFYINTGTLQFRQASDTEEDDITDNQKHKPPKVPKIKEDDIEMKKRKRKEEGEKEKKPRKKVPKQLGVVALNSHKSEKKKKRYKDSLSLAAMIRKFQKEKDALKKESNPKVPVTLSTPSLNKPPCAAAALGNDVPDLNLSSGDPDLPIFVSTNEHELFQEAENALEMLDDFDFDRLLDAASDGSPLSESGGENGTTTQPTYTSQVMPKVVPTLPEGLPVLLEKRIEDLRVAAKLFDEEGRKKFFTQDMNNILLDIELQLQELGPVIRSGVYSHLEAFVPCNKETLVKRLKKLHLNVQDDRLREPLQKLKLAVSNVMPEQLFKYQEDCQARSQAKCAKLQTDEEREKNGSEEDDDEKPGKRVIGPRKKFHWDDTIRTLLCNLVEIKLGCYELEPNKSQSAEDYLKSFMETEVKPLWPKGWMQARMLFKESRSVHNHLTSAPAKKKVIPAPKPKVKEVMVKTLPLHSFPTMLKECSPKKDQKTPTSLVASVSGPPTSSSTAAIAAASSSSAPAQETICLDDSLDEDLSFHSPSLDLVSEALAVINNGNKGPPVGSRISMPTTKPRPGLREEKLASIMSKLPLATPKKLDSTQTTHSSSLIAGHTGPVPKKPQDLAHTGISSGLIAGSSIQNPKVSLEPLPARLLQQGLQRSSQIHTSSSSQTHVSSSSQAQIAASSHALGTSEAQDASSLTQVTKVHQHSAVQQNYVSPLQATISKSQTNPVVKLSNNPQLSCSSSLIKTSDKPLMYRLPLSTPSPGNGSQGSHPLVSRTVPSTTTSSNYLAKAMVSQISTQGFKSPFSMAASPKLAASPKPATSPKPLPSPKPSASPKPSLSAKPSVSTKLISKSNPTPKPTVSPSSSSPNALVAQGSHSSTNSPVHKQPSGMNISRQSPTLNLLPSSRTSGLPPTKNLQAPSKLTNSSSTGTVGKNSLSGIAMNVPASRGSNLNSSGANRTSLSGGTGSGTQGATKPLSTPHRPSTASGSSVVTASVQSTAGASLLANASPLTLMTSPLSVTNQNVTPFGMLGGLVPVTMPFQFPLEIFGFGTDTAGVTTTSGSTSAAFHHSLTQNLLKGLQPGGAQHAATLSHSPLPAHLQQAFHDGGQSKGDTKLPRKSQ
UniProt Q6PF06: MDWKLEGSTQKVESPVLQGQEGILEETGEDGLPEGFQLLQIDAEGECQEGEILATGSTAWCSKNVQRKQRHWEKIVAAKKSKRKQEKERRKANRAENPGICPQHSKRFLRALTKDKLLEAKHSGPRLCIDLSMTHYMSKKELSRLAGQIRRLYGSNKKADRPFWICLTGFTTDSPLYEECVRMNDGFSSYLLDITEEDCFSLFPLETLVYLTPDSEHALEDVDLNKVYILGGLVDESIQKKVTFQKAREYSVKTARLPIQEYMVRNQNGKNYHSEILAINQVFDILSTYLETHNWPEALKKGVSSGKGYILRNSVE
UniProt Q5R3I4: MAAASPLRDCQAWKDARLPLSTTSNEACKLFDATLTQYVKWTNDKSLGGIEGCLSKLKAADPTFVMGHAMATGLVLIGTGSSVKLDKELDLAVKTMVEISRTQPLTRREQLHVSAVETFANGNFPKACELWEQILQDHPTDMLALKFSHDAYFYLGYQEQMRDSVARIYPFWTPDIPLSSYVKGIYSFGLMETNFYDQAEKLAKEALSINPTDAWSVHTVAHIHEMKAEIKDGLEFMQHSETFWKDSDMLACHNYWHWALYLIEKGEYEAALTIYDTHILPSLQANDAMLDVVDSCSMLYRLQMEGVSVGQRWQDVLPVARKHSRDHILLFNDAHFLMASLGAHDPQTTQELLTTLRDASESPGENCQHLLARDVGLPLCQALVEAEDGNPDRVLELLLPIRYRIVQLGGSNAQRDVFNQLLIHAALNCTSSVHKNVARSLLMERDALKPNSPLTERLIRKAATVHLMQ
UniProt Q15631: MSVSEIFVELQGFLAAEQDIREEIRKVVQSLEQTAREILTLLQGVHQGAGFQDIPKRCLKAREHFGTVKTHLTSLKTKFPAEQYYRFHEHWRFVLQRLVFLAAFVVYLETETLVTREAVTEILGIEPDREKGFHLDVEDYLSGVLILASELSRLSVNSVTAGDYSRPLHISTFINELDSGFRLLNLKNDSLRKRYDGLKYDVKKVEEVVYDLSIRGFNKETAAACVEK
UniProt Q8NBP0: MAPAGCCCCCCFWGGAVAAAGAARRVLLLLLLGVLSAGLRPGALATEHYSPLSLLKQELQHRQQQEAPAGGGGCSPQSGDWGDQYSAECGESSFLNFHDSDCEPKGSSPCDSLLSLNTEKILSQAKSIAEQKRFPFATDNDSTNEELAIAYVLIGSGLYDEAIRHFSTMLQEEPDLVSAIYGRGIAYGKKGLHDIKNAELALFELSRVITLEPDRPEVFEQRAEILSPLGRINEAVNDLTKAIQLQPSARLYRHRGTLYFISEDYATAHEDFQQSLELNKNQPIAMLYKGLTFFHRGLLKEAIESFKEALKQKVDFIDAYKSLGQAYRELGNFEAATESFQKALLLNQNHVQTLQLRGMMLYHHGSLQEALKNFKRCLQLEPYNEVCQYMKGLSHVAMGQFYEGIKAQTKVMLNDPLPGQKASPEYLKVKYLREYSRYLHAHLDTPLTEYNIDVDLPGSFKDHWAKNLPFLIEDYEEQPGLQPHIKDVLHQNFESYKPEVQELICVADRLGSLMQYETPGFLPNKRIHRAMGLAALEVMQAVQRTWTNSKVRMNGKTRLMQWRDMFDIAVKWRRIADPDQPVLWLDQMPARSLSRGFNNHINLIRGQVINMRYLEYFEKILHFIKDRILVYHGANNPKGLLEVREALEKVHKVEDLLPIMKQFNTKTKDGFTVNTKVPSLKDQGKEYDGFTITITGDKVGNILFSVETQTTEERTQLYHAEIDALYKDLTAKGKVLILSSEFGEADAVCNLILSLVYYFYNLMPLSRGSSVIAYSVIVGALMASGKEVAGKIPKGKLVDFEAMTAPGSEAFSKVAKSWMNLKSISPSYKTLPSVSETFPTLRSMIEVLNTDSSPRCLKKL
UniProt P43897: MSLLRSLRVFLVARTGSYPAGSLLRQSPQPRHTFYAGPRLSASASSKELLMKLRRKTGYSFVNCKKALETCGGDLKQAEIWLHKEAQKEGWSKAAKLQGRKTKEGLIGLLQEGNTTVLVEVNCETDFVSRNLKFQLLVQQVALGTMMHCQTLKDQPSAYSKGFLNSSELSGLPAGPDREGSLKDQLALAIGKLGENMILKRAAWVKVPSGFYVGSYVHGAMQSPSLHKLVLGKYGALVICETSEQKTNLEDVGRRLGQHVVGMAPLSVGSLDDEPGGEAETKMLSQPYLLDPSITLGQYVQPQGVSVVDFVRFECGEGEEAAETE

Row | Target | log2 mean competition ratio
1 | TUT7 C334 (UniProt Q5VYS8) | 0.218
2 | TSC2 C65 (UniProt P49815) | 0.162
3 | UBE4A C79 (UniProt Q14139) | 0.167
4 | UBE2O C1288 | -0.234
5 | TSC22D2 C63 (UniProt O75157) | -0.165
6 | TYW3 C49 (UniProt Q6IPR3) | 0.457
7 | TTC5 C29 (UniProt Q8N0Z6) | 0.145
8 | TUT4 C776 (UniProt Q5TAX3) | -0.331
9 | TTC7B C21 (UniProt Q86TV6) | -0.127

Same assay, conditions: 200 µM; treatment time: 4 h; cell line lysate: HEK293T

Row | Target | log2 mean competition ratio
10 | TTK C269 (UniProt P33981) | 0.54
11 | TTF2 C754 (UniProt Q9UNY4) | -0.199
12 | UBR1 C279 (UniProt Q8IWV7) | -0.0616
13 | TTC1 C178 (UniProt Q99614) | -0.0199
14 | TTC28 C2077 (UniProt Q96AY4) | 0.342
15 | TUBA1B C347 (UniProt P68363) | -0.118
16 | TUBB4B C303 (UniProt P68371) | -0.394
17 | UBN2 C515 (UniProt Q6ZU65) | -0.0317
18 | UBAC1 C322 (UniProt Q9BSL1) | -0.468
19 | TRMT1L C239 (UniProt Q7Z2T5) | -0.157
20 | TRMT10B C101 (UniProt Q6PF06) | 0.274
21 | UBE2I C43 | -0.345
22 | TTC38 C367 (UniProt Q5R3I4) | -0.418
23 | TUT4 C852 (UniProt Q5TAX3) | 0.615
24 | TUT4 C1226 (UniProt Q5TAX3) | 0.73
25 | TYK2 C736 (UniProt P29597) | -0.0139
26 | UBR4 C779 (UniProt Q5T4S7) | -0.0444
27 | TSN C225 (UniProt Q15631) | -0.131
28 | TUBGCP6 C995 (UniProt Q96RT7) | 0.495

Row | Target | log2 mean competition ratio
29 | TTC13 C110 (UniProt Q8NBP0) | -0.0346
30 | TTK C322 (UniProt P33981) | 0.296
31 | TSFM C240 (UniProt P43897) | -0.132
32 | TSEN15 C13 | 0.101
33 | TRMT1L C419 (UniProt Q7Z2T5) | -0.103
34 | TTC1 C28 (UniProt Q99614) | -0.247
35 | TUBB4B C12 (UniProt P68371) | -0.314
36 | UBAP2 C104 | 0.299
37 | TUSC3 C123 (UniProt Q13454) | -0.335
38 | TUT7 C334 (UniProt Q5VYS8) | 0.495
39 | TSC2 C65 (UniProt P49815) | -0.0365
40 | UBE4A C79 (UniProt Q14139) | 0.0322
41 | UBE2O C1288 | -0.289
42 | TSC22D2 C63 (UniProt O75157) | 0.27
43 | TYW3 C49 (UniProt Q6IPR3) | 0.0359
44 | TTC5 C29 (UniProt Q8N0Z6) | -0.154
45 | TUT4 C776 (UniProt Q5TAX3) | -0.763
46 | TTC7B C21 (UniProt Q86TV6) | 0.00209

Compound: ClCC(=O)N[C@H]1CCCc2ccccc12
Test: as above
Conditions: 50 µM; treatment time: 4 h; cell line lysate: HEK293T
Method: as §1

Row | Target | log2 mean competition ratio
47 | TTK C269 (UniProt P33981) | 0.0586
48 | TTF2 C754 (UniProt Q9UNY4) | 0.0925
49 | UBR1 C279 (UniProt Q8IWV7) | -0.249
50 | TTC1 C178 (UniProt Q99614) | 0.18
51 | TTC28 C2077 (UniProt Q96AY4) | -0.054
52 | TUBA1B C347 (UniProt P68363) | 0.62
53 | TUBB4B C303 (UniProt P68371) | 0.408
54 | UBN2 C515 (UniProt Q6ZU65) | 0.246
55 | UBAC1 C322 (UniProt Q9BSL1) | -0.146
56 | TRMT1L C239 (UniProt Q7Z2T5) | 0.214
57 | TRMT10B C101 (UniProt Q6PF06) | 0.528
58 | UBE2I C43 | 0.709
59 | TTC38 C367 (UniProt Q5R3I4) | 0.0125
60 | TUT4 C852 (UniProt Q5TAX3) | -0.235
61 | TUT4 C1226 (UniProt Q5TAX3) | -0.494
62 | TYK2 C736 (UniProt P29597) | 0.374
63 | UBR4 C779 (UniProt Q5T4S7) | 0.309
64 | TSN C225 (UniProt Q15631) | 0.255

Row | Target | log2 mean competition ratio
65 | TUBGCP6 C995 (UniProt Q96RT7) | -0.178
66 | TTC13 C110 (UniProt Q8NBP0) | -0.00289
67 | TTK C322 (UniProt P33981) | -0.095
68 | TSFM C240 (UniProt P43897) | 0.285
69 | TSEN15 C13 | -0.0191
70 | TRMT1L C419 (UniProt Q7Z2T5) | -0.058
71 | TTC1 C28 (UniProt Q99614) | 0.178
72 | TUBB4B C12 (UniProt P68371) | -0.0954
73 | UBAP2 C104 | 0.231
74 | TUT7 C334 (UniProt Q5VYS8) | -0.32
75 | TSC2 C65 (UniProt P49815) | -0.356
76 | UBE4A C79 (UniProt Q14139) | 0.0216
77 | UBE2O C1288 | 0.0539
78 | TSC22D2 C63 (UniProt O75157) | -0.178
79 | TYW3 C49 (UniProt Q6IPR3) | 0.573
80 | TTC5 C29 (UniProt Q8N0Z6) | -0.651
81 | TTC7B C21 (UniProt Q86TV6) | -0.165

Same assay, conditions: 200 µM; treatment time: 4 h; cell line lysate: HEK293T

Row | Target | log2 mean competition ratio
82 | TTK C269 (UniProt P33981) | 0.615
83 | TTF2 C754 (UniProt Q9UNY4) | 0.0909
84 | UBR1 C279 (UniProt Q8IWV7) | -0.196
85 | TTC1 C178 (UniProt Q99614) | -0.0731
86 | TTC28 C2077 (UniProt Q96AY4) | -0.351
87 | TUBA1B C347 (UniProt P68363) | 0.0886
88 | TUBB4B C303 (UniProt P68371) | -0.182
89 | UBN2 C515 (UniProt Q6ZU65) | -0.0602
90 | UBAC1 C322 (UniProt Q9BSL1) | -0.169
91 | TRMT1L C239 (UniProt Q7Z2T5) | -0.0244
92 | TRMT10B C101 (UniProt Q6PF06) | -0.0704
93 | UBE2I C43 | 0.0825
94 | TTC38 C367 (UniProt Q5R3I4) | -0.284
95 | TUT4 C852 (UniProt Q5TAX3) | 0.302
96 | TUT4 C1226 (UniProt Q5TAX3) | 0.0705
97 | TYK2 C736 (UniProt P29597) | -0.059
98 | UBR4 C779 (UniProt Q5T4S7) | 0.0292
99 | TSN C225 (UniProt Q15631) | -0.000873
100 | TUBGCP6 C995 (UniProt Q96RT7) | 0.0873

Row | Target | log2 mean competition ratio
101 | TTC13 C110 (UniProt Q8NBP0) | 0.188
102 | TTK C322 (UniProt P33981) | 0.166
103 | TSFM C240 (UniProt P43897) | -0.19
104 | TSEN15 C13 | -0.00887
105 | TRMT1L C419 (UniProt Q7Z2T5) | -0.143
106 | TTC1 C28 (UniProt Q99614) | -0.0512
107 | TUBB4B C12 (UniProt P68371) | -0.099
108 | UBAP2 C104 | 0.265
109 | TUSC3 C123 (UniProt Q13454) | -0.332
110 | TUT7 C334 (UniProt Q5VYS8) | 0.382
111 | TSC2 C65 (UniProt P49815) | 0.0564
112 | UBE4A C79 (UniProt Q14139) | -0.174
113 | UBE2O C1288 | -0.186
114 | TSC22D2 C63 (UniProt O75157) | 0.334
115 | TYW3 C49 (UniProt Q6IPR3) | -0.0886
116 | TTC5 C29 (UniProt Q8N0Z6) | 0.146
117 | TUT4 C776 (UniProt Q5TAX3) | -0.691
118 | TTC7B C21 (UniProt Q86TV6) | 0.12

Reference: the supplement of paper PMC11732987, “Enantioselective OTUD7B fragment discovery through chemoproteomics screening and high-throughput optimisation” (Communications Chemistry, 2025)
